Source: publication PMC6684519
No constants are given. Whether binding was seen depends on the method and setting. In cells and extracts the contact can be indirect.

Amino acid sequences for entries named in this document (tags omitted).
UniProt O95863: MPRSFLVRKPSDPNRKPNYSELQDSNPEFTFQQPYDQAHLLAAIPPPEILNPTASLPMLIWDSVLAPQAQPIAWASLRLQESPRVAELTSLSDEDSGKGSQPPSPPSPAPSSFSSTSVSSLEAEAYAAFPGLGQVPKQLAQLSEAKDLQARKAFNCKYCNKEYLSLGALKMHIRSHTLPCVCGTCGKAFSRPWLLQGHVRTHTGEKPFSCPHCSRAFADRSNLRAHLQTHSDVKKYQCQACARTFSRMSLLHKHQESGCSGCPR

B1: Zeb-1 (protein, UniProt P37275 1-1124)
chain: MADGPRCKRRKQANPRRNNVTNYNTVVETNSDSDDEDKLHIVEEESVTDAADCEGVPEDDLPTDQTVLPGRSSEREGNAKNCWEDDRKEGQEILGPEAQADEAGCTVKDDECESDAENEQNHDPNVEEFLQQQDTAVIFPEAPEEDQRQGTPEASGHDENGTPDAFSQLLTCPYCDRGYKRFTSLKEHIKYRHEKNEDNFSCSLCSYTFAYRTQLERHMTSHKSGRDQRHVTQSGCNRKFKCTECGKAFKYKHHLKEHLRIHSGEKPYECPNCKKRFSHSGSYSSHISSKKCISLIPVNGRPRTGLKTSQCSSPSLSASPGSPTRPQIRQKIENKPLQEQLSVNQIKTEPVDYEFKPIVVASGINCSTPLQNGVFTGGGPLQATSSPQGMVQAVVLPTVGLVSPISINLSDIQNVLKVAVDGNVIRQVLENNQANLASKEQETINASPIQQGGHSVISAISLPLVDQDGTTKIIINYSLEQPSQLQVVPQNLKKENPVATNSCKSEKLPEDLTVKSEKDKSFEGGVNDSTCLLCDDCPGDINALPELKHYDLKQPTQPPPLPAAEAEKPESSVSSATGDGNLSPSQPPLKNLLSLLKAYYALNAQPSAEELSKIADSVNLPLDVVKKWFEKMQAGQISVQSSEPSSPEPGKVNIPAKNNDQPQSANANEPQDSTVNLQSPLKMTNSPVLPVGSTTNGSRSSTPSPSPLNLSSSRNTQGYLYTAEGAQEEPQVEPLDLSLPKQQGELLERSTITSVYQNSVYSVQEEPLNLSCAKKEPQKDSCVTDSEPVVNVIPPSANPINIAIPTVTAQLPTIVAIADQNSVPCLRALAANKQTILIPQVAYTYSTTVSPAVQEPPLKVIQPNGNQDERQDTSSEGVSNVEDQNDSDSTPPKKKMRKTENGMYACDLCDKIFQKSSSLLRHKYEHTGKRPHECGICKKAFKHKHHLIEHMRLHSGEKPYQCDKCGKRFSHSGSYSQHMNHRYSYCKREAEERDSTEQEEAGPEILSNEHVGARASPSQGDSDERESLTREEDEDSEKEEEEEDKEMEELQEEKECEKPQGDEEEEEEEEEVEEEEVEEAENEGEEAKTEGLMKDDRAESQASSLGQKVGESSEQVSEEKTNEA

Assays:
[1] = molecular target: Hic-5 (hydrogen peroxide inducible clone-5) (human (endogenous in HCC413)) (UniProt O43294); test: co-IP; IP/western analysis of endogenous proteins in HCC413; cells untreated or treated with LZ-8 (5 μg/ml)
[2] = molecular target: Hic-5 expressed from the Hic-5 cDNA expression plasmid (p-Hic-5) (UniProt O43294); test: co-IP; HCC340 transfected with p-Hic-5 or p-CMV vector for indicated times (24-48 h); lysates, immunoprecipitation of Hic-5 followed by western blot of indicated molecules

Molecule | binding [1] | binding [2]
Snail (from UniProt O95863 1-264) | no binding | 
B1 |  | no binding
